Here are results for 52 molecules from PubChem BioAssay AID1487 (National Center for Advancing Translational Sciences (NCATS), 2009).

“And” between values parts separate entries of the source, which are not always exact repeats. Equal values may be shown once. This is one part of the list. These are further read-outs of the screen, such as a control signal, another cell line or another target. No call is given for them. Most of these compounds were active or inconclusive in the main read-out, so they are no random draw. Words in brackets tell the shape of the fitted curve; partial curves, single points and poor fits give uncertain potencies.

A short description of this test: qHTS Assay for Modulators of Lamin A Splicing. Conditions: HeLa LMNA splicing GFP/RFP minigene ratio, 48 h. A digest of the protocol:
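S3 HeLa stable clones carrying a lamin A-EGFP splicing minigene plus DsRed2 were seeded at 600 cells/well in Opti-MEM with 2% FBS, pin-dosed and incubated 48 h at 37°C. Acumen cytometry (488 nm) gave the GFP/RFP total-intensity ratio.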
A general note: qHTS replaces the single test concentration by a dilution series.

Setting [1] is: measured here: GFP splicing reporter channel.
The mark [2] stands for this setting: measured here: RFP viability control channel.

In the case of `CCOC(=O)Cc1csc(NC(=O)c2cc(=O)c3ccccc3o2)n1`, the concentration at half-maximal activity (AC50) is, setting by setting: under setting [1], 0.0398 µM [rising, full curve, poor fit]; under setting [2], 0.0891 µM [rising, full curve, poor fit].
Turning to `COc1c(S(=O)(=O)n2nc(C)cc2C)ccc(Cl)c1Cl`, under setting [2], the AC50 was 28.2 µM [rising, single point].
`CCOC(=O)c1sc(-c2ccccc2)cc1NC(=O)c1ccc(S(=O)(=O)N(CCOC)CCOC)cc1`: the AC50 is 0.631 µM [falling, full curve, poor fit] under setting [1] and 0.447 µM [falling, full curve, poor fit] under setting [2].
Regarding `O=C1N=C(N2CCCCC2)S/C1=C/C1=Cc2ccccc2OC1`, the AC50 under setting [2] was 0.562 µM [falling, full curve, poor fit].
Still for that read-out and setting: the figure for `CC(C(=O)OCc1nnc(-c2ccccc2)o1)N1C(=O)c2ccccc2C1=O` (stereo unspecified) is 0.158 µM [falling, full curve, poor fit].
Consider `Cc1ccc(COC(=O)c2nn(C)c(=O)c3ccccc23)cc1`, for which, under setting [2], the AC50 was 5.01 µM [rising, partial curve, poor fit].
In the case of `CCC(C)Oc1ccccc1C1CC(=O)NC2=C1C(=O)CCC2` (stereo unspecified), the AC50 was 35.5 µM [falling, single point] under setting [1] and 22.4 µM [falling, single point] under setting [2].
Take `COc1ccc(-n2c(=O)c(CCc3ccccc3)nc3cnc(OC)nc32)cc1`: the AC50 under setting [1] was 11.2 µM [falling, partial curve, poor fit].
On the same count and under the same terms, with `Nc1ncn(C2C[C@H](O)[C@@H](CO)O2)c(=O)n1` (stereo partly specified) the figure was 0.562 µM [falling, partial curve, poor fit].
Regarding `O=C(Cn1c(-c2cccs2)cc2cc(F)ccc21)NCCCN1CCN(c2ccccc2F)CC1`, the AC50 under setting [2] is 14.1 µM [rising, partial curve].
Same read-out and setting: with `CC(C)c1ccc(CNC(=O)C(=O)NCCCn2ccnc2)cc1` the figure was 1.41 µM [falling, full curve, poor fit]; with `CCc1ccc2[nH]c(=O)c(CN(CCCN3CCOCC3)C(=O)Nc3cccc(Cl)c3)cc2c1`, 12.6 µM [rising, single point].
For the molecule `O=C(CSc1nc2c(cnn2-c2ccc(F)cc2)c(=O)[nH]1)N1CCCCCC1`, the AC50 under setting [2] is 0.251 µM [falling, full curve, poor fit].
As to `COc1ccc(C(CNC(=O)c2cccc([N+](=O)[O-])c2)N2CCOCC2)cc1` (stereo unspecified), the AC50 under setting [1] is 0.282 µM [rising, full curve, poor fit].
In the case of `OC(CNC1CCCc2ccccc21)COc1c(Cl)cccc1Cl` (stereo unspecified), under setting [2], the AC50 was 15.8 µM [rising, single point].
`O=C(Nc1cccc(-c2nc3ccccc3s2)c1)c1cccs1`: the AC50 reads like this: under setting [1], 31.6 µM [rising, single point]; under setting [2], 35.5 µM [rising, single point].
With `Cc1cc(C)c2c(N)c(C(=O)NC3CCCC3)sc2n1`, the AC50 runs as follows: under setting [1], 3.98 µM [rising, partial curve]; under setting [2], 5.62 µM [rising, partial curve].
For `CCCCN(CC)C(=O)c1ccccc1Oc1ccccc1`, the AC50 reads like this: under setting [1], 3.16 µM [rising, partial curve, poor fit]; under setting [2], 12.6 µM [rising, partial curve].
Regarding `COc1ccccc1S(=O)(=O)Cc1ccc(C(=O)N2CCN(c3cccc(Cl)c3)CC2)o1`, the AC50 under setting [2] was 15.8 µM [rising, partial curve].
As for `CCCc1cc(=O)[nH]c(Nc2ccc(Cl)cc2)n1`, the AC50 under setting [1] was 12.6 µM [rising, partial curve] and the AC50 under setting [2] is 14.1 µM [rising, partial curve, poor fit].
As to `Cc1ccc(OCCCOc2cccc3cccnc23)cc1C`, the AC50 under setting [1] was 22.4 µM [falling, single point].
As to `Cc1nc(N2CCCC2)c2nnn(Cc3ccccc3Cl)c2n1`, the AC50 under setting [1] was 12.6 µM [rising, partial curve] and the AC50 under setting [2] was 25.1 µM [rising, single point].
`Cc1ccc(CNC(=O)Cn2c(=O)ccc3cc(S(=O)(=O)N4CCCC4)ccc32)cc1`: the AC50 under setting [2] is 0.501 µM [falling, full curve, poor fit].
Take `O=C(NNc1ccc(F)cc1F)c1c(F)cccc1Cl`: the AC50 reads like this: under setting [1], 22.4 µM [rising, partial curve]; under setting [2], 31.6 µM [rising, single point].
Consider `CCOc1ccc(C(=O)NCCc2sc(-c3ccc(OC)c(OC)c3)nc2C)cc1`, for which the concentration at half-maximal activity (AC50) reads like this: under setting [1], 10 µM [falling, partial curve]; under setting [2], 0.0562 µM [falling, full curve, poor fit].
For the molecule `Cc1ccc(C)c(N2CCN(C(=O)c3cc(C)nc4c3c(C)nn4-c3cccc(F)c3)CC2)c1`, under setting [2], the AC50 was 35.5 µM [rising, partial curve, poor fit].
As to `Cn1c(N2CCC(C(N)=O)CC2)nc2c1c(=O)n(Cc1cccc(Br)c1)c(=O)n2C`, the AC50 is, setting by setting: under setting [1], 20 µM [rising, single point]; under setting [2], 20 µM [rising, partial curve].
As to `COc1ccccc1NS(=O)(=O)c1ccc(N/N=C(\C)C(C)C)c([N+](=O)[O-])c1`, under setting [2], the AC50 was 5.62 µM [rising, full curve].
In the case of `COc1ccc(Cn2c(SCc3ccccc3C)nc3cc(OC)c(OC)cc3c2=N)cc1`, the AC50 is, setting by setting: under setting [1], 14.1 µM [falling, partial curve]; under setting [2], 12.6 µM [falling, partial curve].
Take `COc1ccccc1NC(=O)Cn1c(=O)n(CCc2c[nH]c3ccccc23)c(=O)c2cccnc21`: the AC50 runs as follows: under setting [1], 1.58 µM [rising, full curve]; under setting [2], 3.55 µM [rising, full curve, poor fit].
`CN1CCN(C(=O)c2ccc(CSc3nc4ccncc4n3Cc3ccc(F)cc3)cc2)CC1`: the AC50 under setting [2] was 12.6 µM [rising, single point].
Take `CC(=O)SC1CC2=CC(=O)CCC2(C)C2CCC3(C)C(CCC34CCC(=O)O4)C12` (stereo unspecified): under setting [2], the AC50 is 0.0794 µM [rising, full curve].
Consider `O=C(CSc1nnc(-c2ccccn2)n1Cc1ccco1)c1ccc(Cl)cc1`, for which, under setting [1], the AC50 was 20 µM [rising, partial curve, poor fit].
Consider `CCCCC(=O)NC(NC(=S)N1CCCCCC1)C(Cl)(Cl)Cl` (stereo unspecified), for which the AC50 was 31.6 µM [rising, single point] under setting [1] and 35.5 µM [rising, single point] under setting [2].
On to `Cc1nc(NCc2ccco2)c2oc3ccccc3c2n1`, for which the AC50 under setting [2] is 11.2 µM [rising, partial curve].
Still for that read-out and setting: with `CCOC(=O)N1CCN(c2ccc(C(=O)c3ccccc3)cc2F)CC1` the figure was 35.5 µM [rising, single point].
As for `O=C(CN1CCN(c2nc(-c3ccccc3)cs2)CC1)NCc1ccc2c(c1)OCO2`, the AC50 is 35.5 µM [rising, single point] under setting [1] and 35.5 µM [rising, single point] under setting [2].
As to `COc1cc(C(C)=O)ccc1Oc1ncnc2c1cnn2-c1ccc(C)c(C)c1`, the AC50 under setting [2] was 3.55 µM [rising, full curve, poor fit].
On to `COC(=O)c1cc(OC)c(OC)cc1NC(=S)N1CCN(C/C=C/c2ccccc2)CC1`, for which the AC50 is 14.1 µM [rising, single point] under setting [1] and 35.5 µM [rising, single point] under setting [2].
Consider `COC(=O)C1=C(C)NC(C)=C(C(=O)OCCN(C)Cc2ccccc2)C1c1cccc([N+](=O)[O-])c1` (stereo unspecified), for which the AC50 is 11.2 µM [rising, partial curve, poor fit] and 1.78 µM [falling, partial curve, poor fit] and 28.2 µM [falling, single point] under setting [1]; 11.2 µM [rising, partial curve] and 2 µM [falling, partial curve] and 5.62 µM [falling, full curve, poor fit] under setting [2].
On to `CN1/C(=C\C(=O)COC(=O)CN2C(=O)C3CC=CCC3C2=O)C(C)(C)c2ccccc21` (stereo unspecified), for which the AC50 under setting [2] is 35.5 µM [rising, single point].
`Nc1ccc2c3c(cccc13)C(=O)N(c1ccccc1)C2=O`: the AC50 under setting [1] is 0.251 µM [rising, full curve, poor fit].
With `COC(=O)c1cc(C(=O)N2CCN(c3ccccc3OC)CC2)cc([N+](=O)[O-])c1`, under setting [2], the AC50 is 0.0282 µM [falling, full curve, poor fit].
On the same count and under the same terms, with `CN(CC(=O)Nc1cc(S(=O)(=O)N2CCOCC2)ccc1Cl)C1CCS(=O)(=O)C1` (stereo unspecified) the figure was 10 µM [rising, partial curve, poor fit].
As to `CCC(C)c1ccc(NC(=O)C2CCCN(c3ncccn3)C2)cc1` (stereo unspecified), the AC50 runs as follows: under setting [1], 1.26 µM [falling, single point]; under setting [2], 0.0355 µM [falling, single point].
For `O=C(NC12CC3CC(CC(C3)C1)C2)N1CCN(S(=O)(=O)c2ccc(Cl)cc2)CC1`, the AC50 under setting [2] was 7.94 µM [rising, partial curve].
With `CCC(=O)C1=C(c2ccc(Cl)cc2)N(C(=O)CC)n2c(C)nnc2S1`, the AC50 under setting [1] is 17.8 µM [falling, partial curve].
For the molecule `Cc1ccc(N/N=C2\CCS(=O)(=O)c3sccc32)cc1`, the AC50 was 12.6 µM [rising, partial curve, poor fit] under setting [1] and 1.58 µM [rising, partial curve, poor fit] under setting [2].
`CCS(=O)(=O)c1ccc(O)c(Nc2cc(C)nc(SC)n2)c1`: the AC50 under setting [1] was 35.5 µM [falling, partial curve, poor fit].
Consider `O=C(CS(=O)(=O)Cc1ccccc1)N1CCN(c2cccc(C(F)(F)F)c2)CC1`, for which the concentration at half-maximal activity (AC50) under setting [2] is 35.5 µM [rising, single point].
The same measure, in the same setting: the figure for `Cc1ccc(S(=O)(=O)C(CNC(=O)c2ccc(F)c(F)c2)c2ccco2)cc1` (stereo unspecified) is 8.91 µM [falling, partial curve, poor fit].
Regarding `O=C(Oc1ccc(OC(=O)c2ccco2)c(S(=O)(=O)c2ccc(Br)cc2)c1)c1ccco1`, the AC50 under setting [2] is 11.2 µM [falling, partial curve].

Usually AC50 stands for the concentration at which the activity in the assay is half-maximal.
